# Laboratory results: the supplement of paper PMC4962491
# ± gives the standard deviation of the averaged measurements. Only a part is listed here, and it is no random draw. Repeats in this data set agree poorly, so a single value says little. Square brackets hold non-standard residues; d marks the D form. Peptide text beside a SMILES is read from it. pGlu = O=C1CC[C@@H](C(=O)O)N1; Thz = O=C(O)[C@@H]1CSCN1
# System: FaDu
# Assay: mitochondrial oxygen consumption rate normalised to cell number, Z score over the library; higher = higher oxygen consumption (negative = OCR reduction)
# Settings: treatment time 24 h, assay medium: 5 mM galactose, 5 mM pyruvate, 4 mM glutamine
# Method: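 Primary screen: FaDu cells were incubated 24 h with Pharmakon 1600 / TDI oncology set compounds at 2 or 10 uM. Mitochondrial-specific OCR (basal minus 2 uM antimycin A) was measured on a Seahorse XF96 in assay medium with 5 mM galactose, 5 mM pyruvate and 4 mM glutamine, then corrected for Hoechst cell number and expressed as a Z score […]. Compounds that cut cell number by >66% were excluded. Two repeats.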
Structure (SMILES),mitochondrial oxygen consumption rate normalised (2 µM),mitochondrial oxygen consumption rate normalised (10 µM)
COc1c(C)c2c(c(O)c1C/C=C(\C)CCC(=O)OCCN1CCOCC1)C(=O)OC2,0.221 ± 1.9,–
NCCS,0.247 ± 0.26,–
COCCOC(=O)C1=C(C)NC(C)=C(C(=O)OC(C)C)C1c1cccc([N+](=O)[O-])c1 (stereo unspecified),0.79 ± 1.5,–
O=C(O)C(O)C(O)C(=O)O (stereo unspecified),0.514 ± 0.43,–
COc1ccc(CN(CCN(C)C)c2ncccn2)cc1,0.308 ± 0.68,–
NCC(=O)CCC(=O)O,-0.86 ± 0.68,–
NCC(=O)CCC(=O)O [Aminolevulinic Acid],0.319 ± 0.59,–
NC(=O)c1ccc[n+]([C@@H]2O[C@H](COP(=O)([O-])OP(=O)(O)OC[C@H]3O[C@@H](n4cnc5c(N)ncnc54)[C@H](O)[C@@H]3O)[C@@H](O)[C@H]2O)c1,0.349 ± 2.2,–
O=C(CCCN1CCC(O)(c2ccc(Cl)cc2)CC1)c1ccc(F)cc1,-0.832 ± 0.17,–
Cc1ccc(C)c(OCCCC(C)(C)C(=O)O)c1,-0.608 ± 0.59,–
O=C(O)C[C@H](O)C[C@H](O)/C=C/c1c(C2CC2)nc2ccccc2c1-c1ccc(F)cc1,-0.571 ± 0.42,–
COc1ccc([C@@H]2Sc3ccccc3N(CCN(C)C)C(=O)[C@@H]2OC(C)=O)cc1,0.462 ± 0.022,–
Cc1cn([C@H]2C[C@H](N=[N+]=[N-])[C@@H](CO)O2)c(=O)[nH]c1=O,0.297 ± 0.19,–
CN(C)CCN(Cc1ccc(Cl)cc1)c1ccccn1,-0.0491 ± 0.31,–
CCCCCCCCCCOc1cc2c(O)c(C(=O)OCC)cnc2cc1OCC,0.162 ± 0.38,-0.591 ± 0.88
CC(C[N+](C)(C)C)OC(N)=O (stereo unspecified),-0.202 ± 0.4,–
Cc1c(NC(C)C)c(=O)n(-c2ccccc2)n1C,-1.94 ± 0.57,–
NCCc1cc[nH]n1,0.576 ± 0.37,–
CC(=O)OCC(=O)[C@@]1(O)[C@H](OC(C)=O)C[C@H]2[C@@H]3CCC4=CC(=O)C=C[C@]4(C)[C@@]3(F)[C@@H](O)C[C@@]21C,1.64 ± 0.36,–
CC(C)Cn1cnc2c(N)nc3ccccc3c21 [Imiquimod],0.198 ± 0.36,–
CC(C)Cn1cnc2c(N)nc3ccccc3c21,-0.707 ± 0.96,–
NC(=O)N1c2ccccc2CC(=O)c2ccccc21,0.321 ± 0.78,–
O=C(O)CCCC[C@@H]1CCSS1,-0.393 ± 0.44,–
Cc1cccc(Nc2ccncc2S(=O)(=O)NC(=O)NC(C)C)c1,-0.264 ± 0.15,–
CN(C)c1cc(NC(=O)CNC(C)(C)C)c(O)c2c1C[C@H]1C[C@H]3[C@H](N(C)C)C(O)=C(C(N)=O)C(=O)[C@@]3(O)C(O)=C1C2=O,0.367 ± 0.68,–
CC1(C)O[C@@H]2[C@@H](CO[C@@]3(COS(N)(=O)=O)OC(C)(C)O[C@@H]23)O1,-0.666 ± 0.36,–

Structure (SMILES),mitochondrial oxygen consumption rate normalised (2 µM),mitochondrial oxygen consumption rate normalised (10 µM)
COc1cc(NS(=O)(=O)c2ccc(N)cc2)nc(OC)n1,0.884 ± 0.53,–
CC[N+](CC)(CC(=O)Nc1c(C)cccc1C)Cc1ccccc1,0.0274 ± 1.8,–
O=C1N=C(O)NC1(c1ccccc1)c1ccccc1,-0.535 ± 0.62,–
S=c1[nH]cnc2nc[nH]c12 [Mercaptopurine],-0.626 ± 0.007,–
S=c1[nH]cnc2nc[nH]c12,-1.79 ± 0.81,–
CC(=O)CC(c1ccc([N+](=O)[O-])cc1)c1c(O)c2ccccc2oc1=O (stereo unspecified),0.329 ± 0.17,0.325 ± 0.51
CCCCCCCCNC(C)C(O)c1ccc(SC(C)C)cc1 (stereo unspecified),0.228 ± 0.074,–
O=c1[nH]c(=O)n([C@H]2C[C@H](O)[C@@H](CO)O2)cc1C(F)(F)F,2.01 ± 0.92,–
Cc1nnc(SCC2=C(C(=O)O)N3C(=O)[C@@H](NC(=O)Cn4cnnn4)[C@H]3SC2)s1,0.21 ± 0.84,–
CCCC(=O)O[C@]1(C(=O)CO)CC[C@H]2[C@@H]3CCC4=CC(=O)CC[C@]4(C)[C@H]3[C@@H](O)C[C@@]21C,0.73 ± 2.5,–
CC1(C)S[C@@H]2[C@H](NC(=O)COc3ccccc3)C(=O)N2[C@H]1C(=O)O,0.698 ± 0.67,–
COc1ccc2c3c1O[C@H]1C[C@@H](O)C=C[C@@]31CCN(C)C2,0.926 ± 0.67,–
CC(C)NC(=N)NC(=N)Nc1ccc(Cl)cc1,-0.0178 ± 0.62,–
Oc1c(Cl)cc(Cl)c2cccnc12,-0.847 ± 0.84,–
c1ccc(-c2ccc(C(c3ccccc3)n3ccnc3)cc2)cc1 (stereo unspecified),0.0501 ± 0.94,–
O=C1CC[C@@H](C(=O)N2CSC[C@H]2C(=O)O)N1 ([pGlu]-[Thz]-OH),-0.502 ± 0.46,–
CN(C)CCC(c1ccc(Br)cc1)c1ccccn1 (stereo unspecified),0.744 ± 1.1,–
CCC1(c2ccccc2)C(=O)NCNC1=O,-1.22 ± 0.91,–
C[C@H]1C[C@H]2[C@@H]3CCC4=CC(=O)C=C[C@]4(C)[C@@]3(F)[C@@H](O)C[C@]2(C)[C@@]1(O)C(=O)COP(=O)(O)O,-0.752 ± 0.39,-0.398 ± 0.27
CCCCC(CC)COC(=O)CC(C(=O)OCC(CC)CCCC)S(=O)(=O)O (stereo unspecified),0.0742 ± 0.21,0.149 ± 0.34
Nc1ncnc2c1ncn2[C@@H]1O[C@H](CO)[C@@H](O)[C@@H]1O,0.138 ± 0.043,0.868 ± 0.46
C[C@@](Cc1ccc(O)c(O)c1)(NN)C(=O)O,1.13 ± 0.83,–
Cn1c(=O)c2c(ncn2CC2OCCO2)n(C)c1=O,0.647 ± 0.028,–
COC(=O)Nc1nc2cc(Sc3ccccc3)ccc2[nH]1,-0.065 ± 0.23,–
CC(=O)N(CC(O)CO)c1c(I)c(C(=O)NCC(O)CO)c(I)c(C(=O)NCC(O)CO)c1I (stereo unspecified),0.295 ± 0.9,–

# Single records (already shown):
# CCCC(=O)O[C@]1(C(=O)CO)CC[C@H]2[C@@H]3CCC4=CC(=O)CC[C@]4(C)[C@H]3[C@@H](O)C[C@@]21C as listed: mitochondrial oxygen consumption rate normalised (2 µM): 0.73 ± 2.5
# C[C@H]1C[C@H]2[C@@H]3CCC4=CC(=O)C=C[C@]4(C)[C@@]3(F)[C@@H](O)C[C@]2(C)[C@@]1(O)C(=O)COP(=O)(O)O as listed: mitochondrial oxygen consumption rate normalised (2 µM): -0.752 ± 0.39; mitochondrial oxygen consumption rate normalised (10 µM): -0.398 ± 0.27
# CN(C)CCN(Cc1ccc(Cl)cc1)c1ccccn1 as listed: mitochondrial oxygen consumption rate normalised (2 µM): -0.0491 ± 0.31
